Source: PubChem BioAssay AID248 (DTP/NCI, 2004)
The list does not hold the whole screen: it is rich in T/C values a quarter to a half above the control, in often repeated tests (any T/C) and in doses without a T/C. Other doses and runs of a compound stand elsewhere. T/C: endpoint of the treated group in % of that of the vehicle group. Some entries give survivors of the animals treated and no T/C: the source holds a T/C of zero for them, seemingly a mark for toxic or unscored doses. Some survivor counts are full or nearly so, which does not show that the dose was tolerated: survival well below the control is almost never listed, so the zero probably covers shortened survival too. Counts of survivors are from the toxicity check (mostly the fifth day) where no day follows; animals may have died later. Schedule codes are those of the source, taken here to give the interval after Q, in days (D) or hours (H), and the number of doses after X. For survival time, the PubChem record calls one and a half times the control and up active, and a quarter to a half above the control has no call in these data; cut-offs in other NCI protocols can differ.

Test system: L1210 leukemia ip in BDF1 mice, survival T/C
Test: NCI In Vivo Anticancer Drug Screen. Data for tumor model L1210 Leukemia (intraperitoneal) in B6D2F1 (BDF1) mice
Settings: T/C endpoint: mean survival time, higher T/C = longer survival
[1] = dose: 6.0 mg/kg/injection, schedule: Q01DX001 (ip), vehicle: carboxymethylcellulose (CMC)
[2] = dose: 40.0 mg/kg/injection, schedule: Q01DX001 (ip), vehicle: saline
[3] = dose: 400.0 mg/kg/injection, schedule: Q01DX009 (ip), vehicle: saline
[4] = dose: 300.0 mg/kg/injection, schedule: Q01DX001 (ip), vehicle: saline
[5] = dose: 200.0 mg/kg/injection, schedule: Q04DX003 (ip), vehicle: saline
[6] = dose: 400.0 mg/kg/injection, schedule: Q04DX003 (ip), vehicle: saline

Structure (SMILES): O=NN(CCCl)C(=O)NC(=O)NCCCl
- T/C (dose: 4.5 mg/kg/injection, schedule: Q01DX001 (ip), vehicle: carboxymethylcellulose (CMC)): 136 % of control
- T/C [1]: 126 % of control
- T/C (dose: 9.0 mg/kg/injection, schedule: Q01DX001 (ip), vehicle: carboxymethylcellulose (CMC)): 147 % of control
- T/C (dose: 26.0 mg/kg/injection, schedule: Q01DX001 (ip), vehicle: carboxymethylcellulose (CMC)): 125 % of control
- survivor count (dose: 40.0 mg/kg/injection, schedule: Q01DX001 (ip), vehicle: carboxymethylcellulose (CMC)): 6 of 6
- survivor count (dose: 60.0 mg/kg/injection, schedule: Q01DX001 (ip), vehicle: carboxymethylcellulose (CMC)): 3 of 6
- survivor count (dose: 93.0 mg/kg/injection, schedule: Q01DX001 (ip), vehicle: carboxymethylcellulose (CMC)): 0 of 6
- survivor count (dose: 187.0 mg/kg/injection, schedule: Q01DX001 (ip), vehicle: carboxymethylcellulose (CMC)): 0 of 6
- survivor count (dose: 375.0 mg/kg/injection, schedule: Q01DX001 (ip), vehicle: carboxymethylcellulose (CMC)): 0 of 6

Structure (SMILES): NS(=O)(=O)c1nc[nH]c1[N+](=O)[O-]
- survivor count (dose: 400.0 mg/kg/injection, schedule: Q01DX009 (ip), vehicle: acetone): 1 of 6

Structure (SMILES): CNc1cc(N2CCCC2)ccn1
- survivor count (dose: 20.0 mg/kg/injection, schedule: Q01DX001 (ip), vehicle: saline): 1 of 6
- survivor count [2]: 0 of 6
- survivor count (dose: 80.0 mg/kg/injection, schedule: Q01DX001 (ip), vehicle: saline): 0 of 6
- survivor count (dose: 100.0 mg/kg/injection, schedule: Q01DX001 (ip), vehicle: saline): 0 of 6
- survivor count (dose: 200.0 mg/kg/injection, schedule: Q01DX001 (ip), vehicle: saline): 0 of 6
- survivor count (dose: 400.0 mg/kg/injection, schedule: Q01DX001 (ip), vehicle: saline): 0 of 6

Structure (SMILES): CCc1ccccc1NC(=O)N1CCN(C)CC1
- survivor count [3]: 0 of 6

Structure (SMILES): COC(=O)c1ccccc1NC(=O)c1ccccc1C(=O)O
- survivor count (dose: 200.0 mg/kg/injection, schedule: Q04DX002 (ip), vehicle: Klucel (hydroxypropylcellulose) (HPC)): 3 of 3
- survivor count (dose: 400.0 mg/kg/injection, schedule: Q04DX002 (ip), vehicle: Klucel (hydroxypropylcellulose) (HPC)): 3 of 3

Structure (SMILES): CCSC1=NCCS1
- survivor count (dose: 300.0 mg/kg/injection, schedule: Q01DX001 (ip), vehicle: other): 1 of 6

Structure (SMILES): CCO/C=C/C(=O)NC(=S)Nc1ccccc1
- survivor count (dose: 400.0 mg/kg/injection, schedule: Q01DX009 (ip), vehicle: saline with Tween-80): 6 of 6

Structure (SMILES): CCC1N=C(N)N=C(N)N1c1ccc(Cl)cc1 (stereo not given)
- survivor count (dose: 75.0 mg/kg/injection, schedule: Q04DX002 (ip), vehicle: saline with Tween-80): 0 of 3
- survivor count (dose: 150.0 mg/kg/injection, schedule: Q04DX002 (ip), vehicle: saline with Tween-80): 0 of 3
- survivor count [4]: 0 of 6
- survivor count (dose: 300.0 mg/kg/injection, schedule: Q04DX002 (ip), vehicle: saline with Tween-80): 0 of 3

Structure (SMILES): CC[P+](CC=C(C)C)(c1ccccc1)c1ccccc1
- survivor count (dose: 6.25 mg/kg/injection, schedule: Q04DX003 (ip), vehicle: Klucel (hydroxypropylcellulose) (HPC)): 3 of 6
- survivor count (dose: 12.5 mg/kg/injection, schedule: Q04DX003 (ip), vehicle: Klucel (hydroxypropylcellulose) (HPC)): 1 of 6
- survivor count (dose: 25.0 mg/kg/injection, schedule: Q04DX003 (ip), vehicle: Klucel (hydroxypropylcellulose) (HPC)): 0 of 6
- survivor count (dose: 50.0 mg/kg/injection, schedule: Q04DX003 (ip), vehicle: Klucel (hydroxypropylcellulose) (HPC)): 0 of 6
- survivor count (dose: 100.0 mg/kg/injection, schedule: Q04DX003 (ip), vehicle: Klucel (hydroxypropylcellulose) (HPC)): 0 of 6
- survivor count (dose: 200.0 mg/kg/injection, schedule: Q04DX003 (ip), vehicle: Klucel (hydroxypropylcellulose) (HPC)): 0 of 6
- survivor count (dose: 400.0 mg/kg/injection, schedule: Q04DX003 (ip), vehicle: Klucel (hydroxypropylcellulose) (HPC)): 6 of 6

Structure (SMILES): CC1(C)OC2C(CNCCCl)OC(OCc3ccccc3)C2O1 (stereo not given)
- survivor count [5]: 3 of 6
- survivor count [6]: 0 of 6

Structure (SMILES): CCOC(=O)C(CC(C(=O)OCC)C(=O)OCC)C(=O)OCC
- survivor count (dose: 50.0 mg/kg/injection, schedule: Q01DX009 (ip), vehicle: saline with Tween-80): 0 of 3
- survivor count (dose: 100.0 mg/kg/injection, schedule: Q01DX009 (ip), vehicle: saline with Tween-80): 3 of 3
- survivor count (dose: 200.0 mg/kg/injection, schedule: Q01DX009 (ip), vehicle: saline with Tween-80): 3 of 3

Structure (SMILES): C=CCSC1=NC(=O)C(CCCC)C(=O)N1C (stereo not given)
- survivor count (dose: 150.0 mg/kg/injection, schedule: Q01DX001 (ip), vehicle: saline): 0 of 6
- survivor count [4]: 0 of 6

Structure (SMILES): NC(=S)N/N=C(/Cc1ccccc1)CC(O)(C(F)(F)F)C(F)(F)F
- survivor count (dose: 200.0 mg/kg/injection, schedule: Q01DX009 (ip), vehicle: gum acacia): 0 of 6
- survivor count (dose: 400.0 mg/kg/injection, schedule: Q04DX003 (ip), vehicle: gum acacia): 0 of 6

Structure (SMILES): O=CC(NC(=O)N(CCCl)N=O)C(O)C(O)C(O)CO (stereo not given)
- T/C (dose: 0.9 mg/kg/injection, schedule: Q01DX009 (ip), vehicle: carboxymethylcellulose (CMC)): 131 % of control
- T/C (dose: 0.9 mg/kg/injection, schedule: Q01DX009 (ip), vehicle: other): 132 % of control
- T/C (dose: 0.9 mg/kg/injection, schedule: Q01DX009 (ip), vehicle: saline): 126 % of control
- T/C (dose: 1.3 mg/kg/injection, schedule: Q01DX009 (ip), vehicle: carboxymethylcellulose (CMC)): 137 % of control
- T/C (dose: 1.3 mg/kg/injection, schedule: Q01DX009 (ip), vehicle: other): 139 % of control
- T/C (dose: 1.3 mg/kg/injection, schedule: Q01DX009 (ip), vehicle: saline): 137 % of control
- T/C (dose: 2.0 mg/kg/injection, schedule: Q01DX009 (ip), vehicle: saline): 135 % of control
- T/C (dose: 3.0 mg/kg/injection, schedule: Q01DX009 (ip), vehicle: saline): 131 % of control
- T/C (dose: 4.0 mg/kg/injection, schedule: Q01DX001 (ip), vehicle: carboxymethylcellulose (CMC)): 142 % of control
- T/C (dose: 4.0 mg/kg/injection, schedule: Q01DX001 (ip), vehicle: other): 138 % of control
- T/C (dose: 4.0 mg/kg/injection, schedule: Q01DX001 (ip), vehicle: saline): 144 % of control
- T/C [1]: 146 % of control
- T/C (dose: 6.0 mg/kg/injection, schedule: Q01DX001 (ip), vehicle: saline): 148 % of control
- survivor count [2]: 10 of 10
- survivor count (dose: 67.0 mg/kg/injection, schedule: Q01DX001 (ip), vehicle: carboxymethylcellulose (CMC)): 5 of 10
- survivor count (dose: 67.0 mg/kg/injection, schedule: Q01DX001 (ip), vehicle: saline): 9 of 10
- survivor count (dose: 100.0 mg/kg/injection, schedule: Q01DX001 (ip), vehicle: carboxymethylcellulose (CMC)): 3 of 10
- survivor count (dose: 150.0 mg/kg/injection, schedule: Q01DX001 (ip), vehicle: carboxymethylcellulose (CMC)): 1 of 10
- survivor count (dose: 225.0 mg/kg/injection, schedule: Q01DX001 (ip), vehicle: carboxymethylcellulose (CMC)): 0 of 10

Structure (SMILES): CCN1CC(CCN2CCOCC2)C(c2ccccc2)(c2ccccc2)C1=O (stereo not given)
- survivor count (dose: 200.0 mg/kg/injection, schedule: Q01DX009 (ip), vehicle: saline): 0 of 6
- survivor count [5]: 3 of 4
- survivor count [3]: 0 of 6
- survivor count [6]: 0 of 4

Structure (SMILES): S=C(Nc1ccc(Cl)cc1)NC1CC2C=CC1C2 (stereo not given)
- survivor count (dose: 400.0 mg/kg/injection, schedule: Q04DX002 (ip), vehicle: saline with Tween-80): 1 of 3
